The values that follow come from US20190119696A1 (YEDA RESEARCH AND DEVELOPMENT, published 2019).

Test [1] addresses T1, 2-Cys Prx (2-Cys peroxiredoxin, 2-Cys PrxA, At3g11630), endogenous in Arabidopsis plants (Arabidopsis thaliana) (UniProt Q96291).
T1 sequence (looked up): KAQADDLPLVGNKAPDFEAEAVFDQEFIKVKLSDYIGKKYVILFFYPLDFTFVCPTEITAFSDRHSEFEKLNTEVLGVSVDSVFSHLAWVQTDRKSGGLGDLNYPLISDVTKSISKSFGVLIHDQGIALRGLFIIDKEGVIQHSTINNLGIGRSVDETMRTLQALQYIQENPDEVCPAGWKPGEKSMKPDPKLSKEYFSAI
Description: in planta trapped intermolecular disulfide complexes; denatured non-reduced extracts, protein blot.

The target of test [2] is T1, 2-Cys Prx (2-Cys peroxiredoxin, 2-Cys PrxA, At3g11630), endogenous in Arabidopsis plants (Arabidopsis thaliana). The test can be described thus: in planta trapped intermolecular disulfide complexes; non-reducing SDS-PAGE, immunoblot. In general terms: A western blot detects proteins with antibodies after separation by electrophoresis.
For test [3], the target named is T2, APS1 (small subunit of ADP-glucose pyrophosphorylase, AGPase; AT5G48300), endogenous in Arabidopsis plants (Arabidopsis thaliana) (UniProt P55228).
T2 sequence (looked up): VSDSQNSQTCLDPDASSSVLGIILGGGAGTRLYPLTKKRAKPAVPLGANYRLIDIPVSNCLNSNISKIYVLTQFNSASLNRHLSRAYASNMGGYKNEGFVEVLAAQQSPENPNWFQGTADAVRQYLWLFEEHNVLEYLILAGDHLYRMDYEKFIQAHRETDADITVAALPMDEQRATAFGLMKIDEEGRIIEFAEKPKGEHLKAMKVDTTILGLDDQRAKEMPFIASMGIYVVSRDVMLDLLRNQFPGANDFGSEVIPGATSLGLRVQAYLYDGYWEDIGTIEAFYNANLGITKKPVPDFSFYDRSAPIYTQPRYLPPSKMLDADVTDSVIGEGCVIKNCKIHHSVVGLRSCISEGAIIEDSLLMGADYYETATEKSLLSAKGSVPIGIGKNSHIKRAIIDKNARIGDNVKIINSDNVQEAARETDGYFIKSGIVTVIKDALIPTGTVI
The test can be described thus: in planta trapping of intermolecular disulfide complexes; non-reducing SDS-PAGE, anti-HA immunoblot (FIG. 1B: the additional complex did not form in ACHT1 extracts).

These are yes or no findings as the source states them, for the method shown. For part of these data: Binding can be weak; no strength is given. For part of these data: Tags and fused reporters may be left off the sequences shown.

As to “ACHT1MT (Arabidopsis thaliana atypical cysteine histidine-rich thioredoxin 1), HA-tagged (enzyme)”, the binding result in test [1] is given as “binds”; in test [2] it was “binds”; in test [3], “no binding”.
